Test results taken from article PMC3514159.
Results are given in words; binding and its absence hold for the method and conditions named. Binding seen in cells or lysates may run through a third protein. Some entries that bind do so weakly or less than the wild type.

By UniProt entry, the sequences of proteins in these tests, tags left out.
UniProt Q9BYM8: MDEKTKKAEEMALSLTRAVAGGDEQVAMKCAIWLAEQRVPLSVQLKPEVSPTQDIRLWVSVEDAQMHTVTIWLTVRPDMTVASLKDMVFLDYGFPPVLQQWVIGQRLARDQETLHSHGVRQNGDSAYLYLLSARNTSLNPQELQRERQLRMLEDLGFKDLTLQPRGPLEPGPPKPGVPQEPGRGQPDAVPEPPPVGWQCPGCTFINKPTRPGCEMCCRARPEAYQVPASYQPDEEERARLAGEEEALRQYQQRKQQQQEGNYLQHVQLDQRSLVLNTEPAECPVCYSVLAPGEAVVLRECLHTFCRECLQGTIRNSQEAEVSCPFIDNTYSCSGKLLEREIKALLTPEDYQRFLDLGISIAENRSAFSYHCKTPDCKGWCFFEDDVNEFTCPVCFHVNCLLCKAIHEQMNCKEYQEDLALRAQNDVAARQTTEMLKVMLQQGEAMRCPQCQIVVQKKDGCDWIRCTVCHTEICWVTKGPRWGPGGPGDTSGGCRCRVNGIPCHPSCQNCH
UniProt Q9BYR7: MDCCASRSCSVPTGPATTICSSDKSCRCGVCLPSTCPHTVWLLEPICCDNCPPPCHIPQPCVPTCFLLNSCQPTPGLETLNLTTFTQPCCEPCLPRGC
UniProt Q99697: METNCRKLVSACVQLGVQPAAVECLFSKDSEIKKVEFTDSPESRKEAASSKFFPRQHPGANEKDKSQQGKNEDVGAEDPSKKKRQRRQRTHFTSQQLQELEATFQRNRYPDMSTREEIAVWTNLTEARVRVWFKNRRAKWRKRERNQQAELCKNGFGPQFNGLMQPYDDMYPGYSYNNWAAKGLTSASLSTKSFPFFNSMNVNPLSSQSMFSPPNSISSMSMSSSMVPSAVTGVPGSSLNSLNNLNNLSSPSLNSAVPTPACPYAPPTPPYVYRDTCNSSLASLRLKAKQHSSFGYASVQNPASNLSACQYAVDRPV
UniProt Q9Y2Y4: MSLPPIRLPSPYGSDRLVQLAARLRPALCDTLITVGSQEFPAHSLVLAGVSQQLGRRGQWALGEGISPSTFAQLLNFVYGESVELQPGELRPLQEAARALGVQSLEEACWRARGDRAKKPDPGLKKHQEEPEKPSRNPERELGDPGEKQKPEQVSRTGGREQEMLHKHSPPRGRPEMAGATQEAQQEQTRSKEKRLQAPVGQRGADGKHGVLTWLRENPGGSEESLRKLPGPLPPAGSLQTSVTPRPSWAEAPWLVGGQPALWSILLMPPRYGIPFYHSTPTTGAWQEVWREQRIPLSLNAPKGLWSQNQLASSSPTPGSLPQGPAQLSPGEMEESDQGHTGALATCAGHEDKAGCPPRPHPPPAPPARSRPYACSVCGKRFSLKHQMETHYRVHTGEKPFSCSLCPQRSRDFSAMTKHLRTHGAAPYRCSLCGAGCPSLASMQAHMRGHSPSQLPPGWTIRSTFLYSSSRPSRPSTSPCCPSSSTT
UniProt P09022: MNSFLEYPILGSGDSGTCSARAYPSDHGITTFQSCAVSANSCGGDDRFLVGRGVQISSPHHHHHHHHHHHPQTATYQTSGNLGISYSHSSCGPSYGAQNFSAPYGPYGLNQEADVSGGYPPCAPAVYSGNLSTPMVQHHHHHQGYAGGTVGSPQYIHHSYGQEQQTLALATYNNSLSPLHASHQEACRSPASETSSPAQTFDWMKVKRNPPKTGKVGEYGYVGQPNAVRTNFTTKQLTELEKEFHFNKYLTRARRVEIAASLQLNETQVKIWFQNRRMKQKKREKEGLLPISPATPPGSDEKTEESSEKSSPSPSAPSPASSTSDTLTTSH

Assays:
Test in all cases: pull-down; GST-hORF and FLAG-Hoxa1 co-expressed in COS7 or HEK293T; cleared lysate (Tris-HCl pH7.5 20mM, NaCl 120mM, EDTA 0.5mM, NP40 0.5%, glycerol 10%) overnight on glutathione-agarose beads, 3 washes; anti-FLAG western blot
[1] = target: T1, RAB33A (member RAS oncogene family) (human) (UniProt Q14088)
T1 sequence: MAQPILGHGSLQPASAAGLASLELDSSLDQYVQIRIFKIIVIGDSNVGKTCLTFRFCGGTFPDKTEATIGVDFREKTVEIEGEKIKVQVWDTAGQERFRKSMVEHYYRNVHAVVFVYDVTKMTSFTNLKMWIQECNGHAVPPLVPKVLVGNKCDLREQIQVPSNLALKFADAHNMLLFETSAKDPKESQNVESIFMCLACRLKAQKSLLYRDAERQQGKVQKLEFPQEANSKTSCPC

[2] = target: RanBP-type and C3HC4-type zinc finger containing 1 (human) (UniProt Q9BYM8)
[3] = target: T2, family with sequence similarity 108, member A1 (human) (UniProt Q96GS6)
T2 sequence: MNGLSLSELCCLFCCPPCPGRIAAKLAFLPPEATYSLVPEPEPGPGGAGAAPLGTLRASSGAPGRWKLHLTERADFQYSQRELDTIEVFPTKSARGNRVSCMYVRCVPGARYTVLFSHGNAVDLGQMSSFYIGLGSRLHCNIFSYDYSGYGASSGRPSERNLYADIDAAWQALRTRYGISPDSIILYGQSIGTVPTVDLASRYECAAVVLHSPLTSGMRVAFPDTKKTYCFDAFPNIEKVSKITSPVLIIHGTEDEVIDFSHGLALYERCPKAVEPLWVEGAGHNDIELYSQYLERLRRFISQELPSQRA

[4] = target: keratin associated protein 3-2 (human) (UniProt Q9BYR7)
leupaxin (human) = target: T3, leupaxin (human) (UniProt O60711)
T3 sequence: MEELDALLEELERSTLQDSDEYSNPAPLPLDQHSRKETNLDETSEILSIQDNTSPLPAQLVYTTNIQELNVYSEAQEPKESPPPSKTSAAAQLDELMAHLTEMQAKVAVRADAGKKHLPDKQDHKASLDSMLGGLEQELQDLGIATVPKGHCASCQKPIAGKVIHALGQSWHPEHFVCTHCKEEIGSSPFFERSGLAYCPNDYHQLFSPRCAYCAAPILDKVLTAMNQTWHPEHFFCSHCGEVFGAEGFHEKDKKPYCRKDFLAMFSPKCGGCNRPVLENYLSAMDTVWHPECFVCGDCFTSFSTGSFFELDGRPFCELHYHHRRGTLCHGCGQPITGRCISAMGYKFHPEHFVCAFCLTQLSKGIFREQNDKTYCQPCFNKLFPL

[5] = target: paired-like homeodomain 2 (human) (UniProt Q99697)
[6] = target: T4, phospholipid scramblase 4 (human) (UniProt Q9NRQ2)
T4 sequence: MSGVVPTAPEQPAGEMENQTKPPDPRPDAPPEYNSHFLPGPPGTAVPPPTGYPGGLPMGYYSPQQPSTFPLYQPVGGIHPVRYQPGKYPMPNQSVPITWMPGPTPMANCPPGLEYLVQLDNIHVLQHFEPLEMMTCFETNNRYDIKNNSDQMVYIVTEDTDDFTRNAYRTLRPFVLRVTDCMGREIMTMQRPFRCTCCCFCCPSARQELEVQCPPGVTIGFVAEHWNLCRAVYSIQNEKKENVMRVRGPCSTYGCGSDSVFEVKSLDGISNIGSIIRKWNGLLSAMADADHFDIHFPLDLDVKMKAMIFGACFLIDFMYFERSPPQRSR

[7] = target: T5, sprouty homolog 1 (human) (UniProt O43609)
T5 sequence: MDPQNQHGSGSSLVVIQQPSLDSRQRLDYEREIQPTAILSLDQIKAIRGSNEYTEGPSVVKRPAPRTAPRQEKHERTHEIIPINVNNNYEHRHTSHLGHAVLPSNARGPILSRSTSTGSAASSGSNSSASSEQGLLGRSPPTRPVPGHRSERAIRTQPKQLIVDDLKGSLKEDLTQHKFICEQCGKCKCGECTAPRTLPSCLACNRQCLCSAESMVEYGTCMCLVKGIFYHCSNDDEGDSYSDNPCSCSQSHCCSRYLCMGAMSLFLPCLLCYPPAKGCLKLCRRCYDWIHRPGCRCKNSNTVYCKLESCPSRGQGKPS

[8] = target: zinc finger and BTB domain containing 32 (human) (UniProt Q9Y2Y4)

binding [1]: binds
binding [2]: binds
binding [3]: binds
binding [4]: binds
binding (leupaxin (human)): binds
binding [5]: binds
binding [6]: binds
binding [7]: binds
binding [8]: binds
Substance: FLAG-Hoxa1 (from UniProt P09022 1-331)
